No constants are given. Whether binding was seen depends on the method and setting. Some entries that bind do so weakly or less than the wild type.
Molecular target: T1, ribonuclease L (RNase L), Q05823
T1 chain: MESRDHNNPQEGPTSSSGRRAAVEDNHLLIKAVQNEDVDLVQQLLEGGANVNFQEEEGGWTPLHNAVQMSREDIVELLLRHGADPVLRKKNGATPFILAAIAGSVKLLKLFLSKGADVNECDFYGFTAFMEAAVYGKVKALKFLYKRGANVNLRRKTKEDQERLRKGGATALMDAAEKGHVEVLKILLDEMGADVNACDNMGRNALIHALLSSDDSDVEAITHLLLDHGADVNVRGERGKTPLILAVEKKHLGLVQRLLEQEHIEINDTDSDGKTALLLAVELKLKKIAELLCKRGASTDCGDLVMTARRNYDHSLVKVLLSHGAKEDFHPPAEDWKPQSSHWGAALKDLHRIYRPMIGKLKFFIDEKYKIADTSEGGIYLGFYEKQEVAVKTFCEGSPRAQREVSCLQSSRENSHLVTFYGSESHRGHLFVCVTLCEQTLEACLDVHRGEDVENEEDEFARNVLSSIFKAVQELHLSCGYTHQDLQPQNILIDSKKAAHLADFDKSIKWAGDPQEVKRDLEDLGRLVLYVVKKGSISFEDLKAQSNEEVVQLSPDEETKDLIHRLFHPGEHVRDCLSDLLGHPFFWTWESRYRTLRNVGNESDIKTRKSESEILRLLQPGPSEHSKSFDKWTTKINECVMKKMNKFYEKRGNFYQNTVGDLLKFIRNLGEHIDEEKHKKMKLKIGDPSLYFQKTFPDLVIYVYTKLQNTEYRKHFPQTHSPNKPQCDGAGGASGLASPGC
Assay: in vitro RNase L oligomerization induced by small molecule RIBOTAC 2, read by Western blot
Conditions: remark: other sources report otherwise

B1: ribonuclease L (RNase L), Q05823 1-741 (enzyme, UniProt Q05823 1-741, looked up)
chain: T1 chain
B1 was tested, and the binding was “binds”.
